The campaign covered roughly 390,000 compounds. About 4,000 (1%) were called active. Inconclusive results, whose numbers are uncertain, are shown with a selection of clear calls. Calls follow the shape of the dose curve; as a rule, active = well fitted inhibition curve with a large enough effect; inconclusive = small, poorly fitted or top-dose-only effect, or another doubt; inactive = no such curve, though single readings can be large or run the other way. Where the call is inconclusive, the potency comes from a doubtful curve fit.
target: DNA polymerase iota (Homo sapiens) (UniProt Q9UNA4); assay: qHTS for Inhibitors of Polymerase Iota; details: Pol iota fluorescent replication assay, 10 min; series mostly up to 115 µM; activity, negative = inhibition: at the top concentration
Summary of the method: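 Pol iota at 10 nM preincubated 15 min with compounds at room temperature; reaction started with fluorescent substrate, 50 nM final. Fluorescence read kinetically at 0 and 10 min; buffer-only wells as negative control.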
Potency is read from the fitted curve at half-maximal effect.

Sequences of proteins named here, by UniProt entry; tags and fusion partners are left off. A change or cut given only in a name is not applied to a line headed by its entry.
UniProt Q9UNA4: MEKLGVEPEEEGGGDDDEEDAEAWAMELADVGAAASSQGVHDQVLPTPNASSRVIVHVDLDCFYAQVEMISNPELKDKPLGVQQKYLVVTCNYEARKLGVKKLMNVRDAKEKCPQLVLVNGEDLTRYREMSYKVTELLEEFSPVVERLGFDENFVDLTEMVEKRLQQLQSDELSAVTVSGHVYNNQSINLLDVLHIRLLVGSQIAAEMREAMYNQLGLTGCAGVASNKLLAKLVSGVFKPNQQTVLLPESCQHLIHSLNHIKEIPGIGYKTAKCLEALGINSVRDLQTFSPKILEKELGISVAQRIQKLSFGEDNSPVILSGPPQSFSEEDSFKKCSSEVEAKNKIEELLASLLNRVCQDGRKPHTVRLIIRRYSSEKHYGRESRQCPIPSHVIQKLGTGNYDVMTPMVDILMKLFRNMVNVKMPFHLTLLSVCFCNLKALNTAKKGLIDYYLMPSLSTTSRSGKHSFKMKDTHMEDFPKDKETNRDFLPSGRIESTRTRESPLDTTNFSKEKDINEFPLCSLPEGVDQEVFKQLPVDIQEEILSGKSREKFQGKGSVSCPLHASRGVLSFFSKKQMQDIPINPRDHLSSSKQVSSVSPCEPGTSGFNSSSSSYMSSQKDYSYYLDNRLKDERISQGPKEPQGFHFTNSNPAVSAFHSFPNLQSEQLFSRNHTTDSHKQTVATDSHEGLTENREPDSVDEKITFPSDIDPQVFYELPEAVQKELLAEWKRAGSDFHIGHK

Potency, inconclusive:
CCN1C(=O)[C@H]2[C@@H](c3ccc(-c4ccc(F)cc4)c(OC)c3)N[C@@](C)(C(=O)OC)[C@H]2C1=O 25.1 µM [inhibitor, partial curve, poor fit], C#CCOc1ccc(/C=C2/C(=O)ON=C2C)cc1Cl 17.8 µM [inhibitor, full curve, poor fit], O=C1CCN(CCc2ccccc2)CCN1[C@H](CO)Cc1ccccc1 8.91 µM [inhibitor, full curve], COc1ccc2cc(-c3nc4ccc(C(=O)O)cc4[nH]3)c(=O)oc2c1 28.2 µM [inhibitor, partial curve], Cn1nc(-c2ccc(C(=O)Nc3ccc(F)cc3)cc2)c2ccccc2c1=O 28.2 µM [inhibitor, single point], O=C(c1ccc(=O)oc1)N1CCN(c2ccc(F)cc2)CC1 22.4 µM [inhibitor, full curve], CCCCC(=O)Nc1ccc(C(=O)Nc2ccc(S(=O)(=O)N3CCCC3)cc2)cc1 79.4 µM [inhibitor, partial curve], Cc1ccccc1-c1nc2c3ccccc3nc(=S)n2[nH]1 22.4 µM [inhibitor, full curve, poor fit], Cc1ccc(S(=O)(=O)N2CCC[C@H]2C(=O)OC(C)C(=O)Nc2ncc(Cl)cc2Cl)cc1 (stereo partly drawn) 10 µM [inhibitor, single point], O=C(C1=C[C@@H](C2CC2)C[C@@H](OCCCCO)O1)N1CCN(Cc2ccccc2)CC1 20 µM [inhibitor, partial curve, poor fit], CCCn1c(N)c(C(=O)CSc2nnc(-c3cccs3)n2C2CC2)c(=O)[nH]c1=O 89.1 µM [inhibitor, single point], Cn1cccc1C(=O)NC(=O)COC(=O)c1ccccc1Sc1ccccc1C#N 35.5 µM [inhibitor, single point], COc1cccc(Cn2cccc(NC(=O)NC3CCCCC3)c2=O)c1 39.8 µM [inhibitor, partial curve, poor fit], O=C(O)c1cc(O)ccc1O 89.1 µM [inhibitor, single point], N#Cc1c2n(c(=S)n(-c3ccccc3[N+](=O)[O-])c1=O)CCCCC2 35.5 µM [inhibitor, single point], CC(C)OCCCNC(=O)c1cc2c(-c3ccc(Cl)cc3)nn(C)c2s1 89.1 µM [inhibitor, single point], COc1cc(-c2nnc(SCC(=O)Nc3cc(C)on3)n2C)cc(OC)c1O 100 µM [inhibitor, single point], CNc1ccc(N=Nc2cccc3ncccc23)cc1 79.4 µM [inhibitor, partial curve, poor fit], O=C(N/N=C/c1cccs1)c1cc(-c2ccc3ccccc3c2)n[nH]1 56.2 µM [inhibitor, partial curve, poor fit], CCCN(CC(=O)Nc1ccc(C(N)=O)cc1)CC(=O)Nc1ccc(F)c(F)c1F 0.708 µM [inhibitor, full curve, poor fit], Cc1ccc2c(c1)c1ccc3c(c1n2C)C(=O)C=CC3=O 35.5 µM [inhibitor, single point], CC(C)(C)N=C1NN=C(c2ccc(S(=O)(=O)N3CCCCC3)cc2)CS1 39.8 µM [inhibitor, single point], O=C(CSCc1ccccc1)N1CCN(c2ccc(F)cc2)CC1 79.4 µM [inhibitor, single point], CNC(=O)c1nc(C)c(C2(C)CC(c3ccccc3)=NO2)s1 (stereo not drawn) 15.8 µM [inhibitor, partial curve, poor fit], COC(=O)COc1ccc(C2Nc3c(Cl)ccc(C(=O)O)c3C3C=CCC32)cc1 (stereo not drawn) 35.5 µM [inhibitor, single point], Cn1c(=O)oc2cc(S(=O)(=O)Nc3ccc(C(=O)O)cc3)ccc21 56.2 µM [inhibitor, single point], CC(=O)c1ccc(NC2c3ncccc3C(=O)N2Cc2ccc(F)cc2)cc1 (stereo not drawn) 12.6 µM [inhibitor, partial curve, poor fit], Cc1ccc2c(c1Br)/C(=N/N1C(=O)c3ccccc3C1=O)C(=O)N2 28.2 µM [inhibitor, single point], COc1ccc(NC(=O)c2cccn2-c2nnc(N3CCCCC3)s2)cc1 79.4 µM [inhibitor, partial curve], O=C(c1cccs1)N1CCN(Cc2nc3ccccc3c(=O)[nH]2)CC1 39.8 µM [inhibitor, single point], Nc1cnn(Cc2ccccc2F)c1 35.5 µM [inhibitor, single point], COc1cc(OC)c(C2=NOC(C(=O)Nc3cc(C)nn3-c3ccccc3)C2)cc1Cl (stereo not drawn) 50.1 µM [inhibitor, partial curve, poor fit], O=c1c2ccccc2c(-c2cccc(C(F)(F)F)c2)nn1-c1ccccc1 39.8 µM [inhibitor, partial curve, poor fit], CCN1C(N(C)CCc2cccs2)=N[C@@H](c2ccccc2)C(C(=O)OC)=C1C 12.6 µM [inhibitor, partial curve, poor fit], Cc1cccc(NS(=O)(=O)c2ccc(C(=O)NCC(C)(C)N3CCOCC3)cc2)c1C 100 µM [inhibitor, single point], CCN1CCN(C(=S)c2ccc(Cl)cc2)CC1 15.8 µM [inhibitor, partial curve, poor fit], N#Cc1cccc(-n2nnnc2-c2ccc3c(c2)OCO3)c1 89.1 µM [inhibitor, single point], N#C/C(=C/c1ccc(OCc2ccc(C(=O)O)cc2)c(Br)c1)c1cccc(F)c1 14.1 µM [inhibitor, partial curve, poor fit], Cc1cc(/C=C/c2c(C)cnc3ccccc23)ccc1N(C)C 79.4 µM [inhibitor, single point], COc1ccc(C(=O)O)cc1NC(=S)NC(=O)c1ccc(-c2ccc(Cl)cc2)o1 31.6 µM [inhibitor, single point], O=S(=O)(c1ccc2ccccc2c1)N1CCN(C2CCN(Cc3ccccc3)CC2)CC1 31.6 µM [inhibitor, partial curve, poor fit], CN(C)S(=O)(=O)c1cccc(-n2sc3ccccc3c2=O)c1 14.1 µM [inhibitor, partial curve], Cc1ccc(Cl)cc1NC(=O)CSC(N)=O 14.1 µM [inhibitor, partial curve], CCC(C)NC(=O)c1ccc2nc(-c3cccs3)c(-c3cccs3)nc2c1 (stereo not drawn) 25.1 µM [inhibitor, full curve, poor fit], CC(C)Cn1cc(C(=O)N2CCOCC2)c2c3ccccc3n(C)c2c1=O 89.1 µM [inhibitor, partial curve, poor fit]

Potency, active:
NS(=O)(=O)c1ccc(NC(=O)CSc2nnc(NC3CC3)s2)cc1 39.8 µM

activity, negative = inhibition, inactive:
CCOc1ccccc1NC(=O)Cn1nnc2sc(-c3ccccc3)cc2c1=O -3.16%, O=C(NC(=S)Nc1ccc(S(=O)(=O)NC2CCCCC2)cc1)c1cccs1 191%, O=C(NCc1ccccc1F)c1ccc(CN2CC(=O)N3CCCCC3C2=O)cc1 (stereo not drawn) -15.4%, O=C(NCc1ccco1)c1ccc(C(F)(F)F)cc1 9.64%, CCc1cccc(NC(=O)Cn2nc(-c3ccc(OC)cc3)ccc2=O)c1 6.26%, CCOc1ccccc1NC(=O)Cn1c(=O)n(Cc2ccccc2)c(=O)c2c(C)c(C)sc21 5.76%, CCOC(=O)c1ccc(N2C(=O)c3n[nH]c(-c4cccs4)c3C2c2ccc(C(C)(C)C)cc2)cc1 (stereo not drawn) -11.9%, O=C(N/N=C/c1ccco1)c1ccc(NC(=O)C2CC2)cc1 -9.3%, COc1ccc2c(C)c(CC(=O)NCc3ccc(C)cc3)c(=O)oc2c1OC 6.96%, CN(Cc1ccccc1)c1ccc(C=O)cc1 29.1%, COc1ccc2c(c1)CC(C(=O)NCCCN1CCN(c3ccc(F)cc3)CC1)CO2 (stereo not drawn) 26.9%, COc1ccc(-c2c(C)oc3cc(O)cc(O)c3c2=O)cc1OC -2.1%, COc1ccc(C(CNC(=O)c2ccco2)N2CCCCC2)cc1 (stereo not drawn) 109%, OCC1(Cc2ccccc2F)CCCN(Cc2c(F)ccc(F)c2F)C1 (stereo not drawn) 74.5%, Cc1cc(C)c2c(CC(=O)N(Cc3ccccc3)C3CCS(=O)(=O)C3)coc2c1 (stereo not drawn) 35.8%, O=C(O)c1ccc(NC(=S)NC(=O)c2cccc(COc3ccccc3)c2)cc1 12.8%, CC1CCCCN1C(=O)COC(=O)c1ccc(=O)n(Cc2ccccc2)n1 (stereo not drawn) 31.5%, O=C(Nc1cccc2cccnc12)OCc1ccccc1 62.6%, COC(=O)c1c(NC(=O)CN2CCC3(O)CCCCC3C2c2ccc(OC)cc2OC)sc(C)c1C (stereo not drawn) 7.67%, Cc1cc(OCC(=O)N(Cc2sccc2C)C2CCS(=O)(=O)C2)ccc1Cl (stereo not drawn) 21%, Cc1ccc(-c2nc3ccccc3nc2-c2ccccc2)cc1 29.5%, O=C1C2C3C=CC(C3)C2C(=O)N1/N=C/c1ccc(-c2ccccc2[N+](=O)[O-])o1 (stereo not drawn) 7.14%

Source: PubChem BioAssay AID588590 (National Center for Advancing Translational Sciences (NCATS), 2011)
